Measurements from patent US9750719B2, “Tetrazole compounds as calcium channel blockers” (CONVERGENCE PHARMACEUTICALS LIMITED, priority 2010, dated 2017).
Counter-ions that a name gives are not always drawn. Some results were stated once for a whole list of compounds, not compound by compound.

By UniProt entry, the sequences of proteins in these tests, tags left out. Where a name states a change or a piece, a line headed by the entry shows the natural chain unless it says otherwise.
UniProt Q00975, whole entry: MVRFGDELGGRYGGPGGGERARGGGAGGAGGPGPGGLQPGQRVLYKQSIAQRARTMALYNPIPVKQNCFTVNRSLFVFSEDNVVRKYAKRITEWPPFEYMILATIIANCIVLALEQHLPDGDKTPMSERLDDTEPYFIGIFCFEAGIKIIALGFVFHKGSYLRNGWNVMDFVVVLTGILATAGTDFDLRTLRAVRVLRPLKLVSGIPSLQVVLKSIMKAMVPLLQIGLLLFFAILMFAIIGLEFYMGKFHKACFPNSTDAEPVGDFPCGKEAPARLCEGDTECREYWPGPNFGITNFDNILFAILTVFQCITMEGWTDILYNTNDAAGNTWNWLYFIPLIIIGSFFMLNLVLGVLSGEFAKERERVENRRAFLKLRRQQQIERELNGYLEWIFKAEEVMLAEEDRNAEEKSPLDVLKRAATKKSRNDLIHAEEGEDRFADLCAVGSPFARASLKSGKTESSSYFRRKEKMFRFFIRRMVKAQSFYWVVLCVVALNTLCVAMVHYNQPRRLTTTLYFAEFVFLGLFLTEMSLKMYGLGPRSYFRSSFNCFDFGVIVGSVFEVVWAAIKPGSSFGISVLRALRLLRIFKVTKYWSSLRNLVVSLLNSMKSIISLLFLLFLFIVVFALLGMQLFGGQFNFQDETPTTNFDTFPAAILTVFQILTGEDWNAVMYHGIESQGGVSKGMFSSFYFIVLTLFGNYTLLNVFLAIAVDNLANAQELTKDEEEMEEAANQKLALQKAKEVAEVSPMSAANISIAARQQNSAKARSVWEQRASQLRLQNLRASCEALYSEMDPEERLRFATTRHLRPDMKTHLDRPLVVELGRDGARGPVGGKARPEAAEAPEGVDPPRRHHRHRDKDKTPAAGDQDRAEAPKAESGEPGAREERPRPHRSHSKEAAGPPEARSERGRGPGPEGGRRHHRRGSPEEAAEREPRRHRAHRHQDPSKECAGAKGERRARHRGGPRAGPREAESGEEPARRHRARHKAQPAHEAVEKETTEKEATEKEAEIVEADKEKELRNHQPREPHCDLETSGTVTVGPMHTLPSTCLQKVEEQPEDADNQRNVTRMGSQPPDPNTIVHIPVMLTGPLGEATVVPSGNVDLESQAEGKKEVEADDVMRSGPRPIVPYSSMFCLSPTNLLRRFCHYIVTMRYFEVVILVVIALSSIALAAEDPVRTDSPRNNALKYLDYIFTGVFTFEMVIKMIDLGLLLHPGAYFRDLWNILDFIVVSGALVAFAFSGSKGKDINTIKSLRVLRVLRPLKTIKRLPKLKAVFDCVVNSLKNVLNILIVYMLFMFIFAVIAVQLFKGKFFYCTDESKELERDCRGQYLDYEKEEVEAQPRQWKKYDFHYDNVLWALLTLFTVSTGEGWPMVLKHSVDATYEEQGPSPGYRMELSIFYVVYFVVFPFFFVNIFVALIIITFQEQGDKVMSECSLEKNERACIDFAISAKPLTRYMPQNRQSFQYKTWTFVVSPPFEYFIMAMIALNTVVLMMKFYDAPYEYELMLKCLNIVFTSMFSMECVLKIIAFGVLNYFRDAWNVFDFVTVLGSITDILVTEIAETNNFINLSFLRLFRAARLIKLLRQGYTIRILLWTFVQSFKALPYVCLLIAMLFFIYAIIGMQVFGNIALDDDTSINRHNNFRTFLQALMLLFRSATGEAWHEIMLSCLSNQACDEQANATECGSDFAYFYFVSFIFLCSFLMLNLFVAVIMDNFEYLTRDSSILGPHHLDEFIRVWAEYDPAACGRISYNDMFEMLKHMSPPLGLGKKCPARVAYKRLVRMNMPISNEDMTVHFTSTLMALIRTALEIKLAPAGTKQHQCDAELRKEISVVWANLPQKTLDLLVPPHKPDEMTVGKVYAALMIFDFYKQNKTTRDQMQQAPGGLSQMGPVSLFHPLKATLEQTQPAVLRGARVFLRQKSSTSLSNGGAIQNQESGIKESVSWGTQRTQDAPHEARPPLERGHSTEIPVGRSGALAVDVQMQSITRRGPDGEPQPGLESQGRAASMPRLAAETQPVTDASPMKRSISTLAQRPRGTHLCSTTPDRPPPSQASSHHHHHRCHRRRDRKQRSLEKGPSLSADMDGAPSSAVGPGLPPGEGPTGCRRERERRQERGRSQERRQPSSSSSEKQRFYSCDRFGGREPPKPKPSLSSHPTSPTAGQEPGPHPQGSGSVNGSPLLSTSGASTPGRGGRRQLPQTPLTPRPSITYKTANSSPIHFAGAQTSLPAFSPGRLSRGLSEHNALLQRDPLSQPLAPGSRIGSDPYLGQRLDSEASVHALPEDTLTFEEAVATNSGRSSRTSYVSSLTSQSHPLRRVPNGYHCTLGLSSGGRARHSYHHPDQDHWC

Target: T1, human Cav2.2 α (α1B) subunit, along with the human β3 and α2δ1 auxiliary subunits (Homo sapiens, UniProt Q00975)
T1 construct: expressed in transfected cells
Test: hCav2.2 assay, IonWorks planar array electrophysiology in stable HEK293 cell line
Assay type: cell-based
Conditions: for use-dependent pUD30: concentration producing 30% use-dependent inhibition, 10th versus 1st depolarising pulse, 10 Hz, -90 mV to +10 mV, HEK293 cells
Protocol: Compounds as defined in the first or second aspect may be tested for in vitro biological activity in the hCav2.2 assay in accordance with the following studies:
Stable cell lines expressing the human Cav2.2 α (α1B) subunit, along with the human β3 and α2δ1 auxiliary subunits were created following sequential transfection and selection of human embryonic kidney (HEK293) cells. HEK293 cells were cultured in Dulbecco's modified Eagles media/F12 media (Invitrogen, Cat #041-95750V) containing 10% fetal bovine serum, with added L-glutamine (2 mM; Invitrogen, Cat #25030-024) and non-essential amino acids (5%; Invitrogen, Cat #11140-035). Initially HEK293 cells were transfected with two plasmid vectors for expression of the hCav2.2 α subunit (pCIN5-hCav2.2 which carries a neomycin resistance marker) and the hCav β3 subunit (pCIH-hCav β3 which carries a hygromycin resistance marker). Clonal cell lines were isolated following selection in media supplemented with 0.4 mg ml^−1 Geneticin G418 (Invitrogen, Cat #10131-027) and 0.1 mg ml^−1 hygromycin (Invitrogen, Cat #10687-010). These clonal cell lines were assessed for Cav2.2 α/β3-mediated current expression using the IonWorks planar array electrophysiology technology (described below). A clonal line was identified that gave a reasonable level of functional Cav2.2 α/β3 current expression. This cell line was transfected with a plasmid vector for expression of the human α2δ1 subunit (pCIP-α2δ1 which carries a puromycin resistance marker) and clonal cell lines isolated following selection in media containing 0.62 μg ml^−1 puromycin (Sigma, Cat #P-7255), in addition to 0.4 mg ml^−1 Geneticin G418 and 0.1 mg ml^−1 hygromycin. Several cell lines were identified that gave robust levels of Cav2.2 α/β3/α2δ1-mediated current expression and one of these was selected for compound profiling. Expression of all three subunits within this cell line was continuously maintained by the inclusion of G418 (0.4 mg ml^−1), hygromycin (0.1 mg ml^−1) and puromycin (0.62 μg ml^−1). Cells were maintained at 37° C. in a humidified environment containing 5% CO2 in air. Cells were liberated from the T175 culture flasks for passage and harvesting using TrpLE (Invitrogen, Cat #12604-013).
Cells were grown to 30-60% confluence in T175 flasks and maintained at 30° C. for 24 hrs prior to recording. Cells were lifted by removing the growth media, washing with Ca^2+ free PBS (Invitrogen, Cat #14190-094) and incubating with 3 ml of warmed (37° C.) TrpLE (Invitrogen, Cat #12604-013) for 6 minutes. Lifted cells were suspended in 10 ml of extracellular buffer. Cell suspension was then placed into a 15 ml tube and centrifuged for 2 minutes at 700 rpm. After centrifugation, the supernatant was removed and the cell pellet was resuspended in 4.5 ml of extracellular solution.
Currents were recorded at room temperature (21-23° C.) using the IonWorks planar array electrophysiology technology (Molecular Devices Corp.). Stimulation protocols and data acquisition were carried out using a microcomputer (Dell Pentium 4). In order to determine planar electrode hole resistances (Rp), a 10 mV, 160 ms potential difference was applied across each hole. These measurements were performed before cell addition. After cell addition a seal test was performed prior to antibiotic (amphotericin) circulation to achieve intracellular access. Leak subtraction was conducted in all experiments by applying a 160 ms hyperpolarizing (10 mV) prepulse 200 ms before the test pulses to measure leak conductance. Test pulses stepping from the holding potential (VH) of −90 mV to +10 mV were applied for 20 ms and repeated 10 times at a frequency of 10 Hz. In all experiments, the test pulse protocol was performed in the absence (pre-read) and presence (post-read) of a compound. Pre- and post-reads were separated by a compound addition followed by a 3-3.5 min incubation. […]

Row | Structure (SMILES) | activity in the hCav2.2 assay | use-dependent pUD30 | use-dependent pUD30 (hydrochloride)
1 | CCN1CCN(Cc2nnnn2-c2cccc(C(F)(F)F)c2)CC1=O [Compound 86, 1-Ethyl-4-({1-[3-(trifluoromethyl)phenyl]-1H-tetrazol-5-yl}methyl)-2-piperazinone] | showed activity |  | 
2 | FCC12CCCN1CCN(Cc1nnnn1-c1ccc(C(F)(F)F)cc1)C2 (stereo not drawn) [Compound 77, 8a-(Fluoromethyl)-2-({1-[4-(trifluoromethyl)phenyl]-1H-tetrazol-5-yl}methyl)octahydropyrrolo[1,2-a]pyrazine] | showed activity | ≥ 5.5 | 
3 | Cl.FC(F)(F)c1ccc(-n2nnnc2CN2CCC2)cc1 [Compound 68, 5-(1-Azetidinylmethyl)-1-[4-(trifluoromethyl)phenyl]-1H-tetrazole hydrochloride] | showed activity |  | 
4 | FC(F)(F)Oc1ccc(-n2nnnc2CN2CCOCC2)cc1 [Compound 14, 4-[(1-{4-[(Trifluoromethyl)oxy]phenyl}-1H-tetrazol-5-yl)methyl]morpholine] | showed activity |  | 
5 | Cc1cc(C#N)ccc1-n1nnnc1CN1C[C@@H](C)O[C@@H](C)C1.Cl [Compound 27, 4-(5-{[cis-2,6-Dimethyl-4-morpholinyl]methyl}-1H-tetrazol-1-yl)-3-methylbenzonitrile hydrochloride] | showed activity | ≥ 4.5 | 
6 | FC(F)(F)c1ccc(-n2nnnc2CN2CCOCC2)c(Cl)c1 [Compound 5, 4-({1-[2-Chloro-4-(trifluoromethyl)phenyl]-1H-tetrazol-5-yl}methyl)morpholine] | showed activity |  | 
7 | CC(C)S(=O)(=O)N1CCN(Cc2nnnn2-c2ccc(C#N)c(C(F)(F)F)c2)CC1 [Compound 122, 4-[5-({4-[(1-methylethyl)sulfonyl]-1-piperazinyl}methyl)-1H-tetrazol-1-yl]-2-(trifluoromethyl)benzonitrile] | showed activity |  | 
8 | CC1CN(Cc2nnnn2-c2ccc(C(F)(F)F)cc2)CCN1C (stereo not drawn) [Compound 109, 1,2-dimethyl-4-({1-[4-(trifluoromethyl)phenyl]-1H-tetrazol-5-yl}methyl)piperazine dihydrochloride] | showed activity |  | 
9 | Cl.N#Cc1ccc(-n2nnnc2CN2CCCC2)cc1 [Compound 56, 4-[5-(1-Pyrrolidinylmethyl)-1H-tetrazol-1-yl]benzonitrile hydrochloride] | showed activity | ≥ 4.5 | 
10 | CCN1CCN(Cc2nnnn2-c2cccc(C(F)(F)F)c2)CC1(C)C.Cl [Compound 91, 1-Ethyl-2,2-dimethyl-4-({1-[3-(trifluoromethyl)phenyl]-1H-tetrazol-5-yl}methyl)piperazine hydrochloride] | showed activity |  | 
11 | FC1(F)CCN(Cc2nnnn2-c2ccc(Cl)cc2)C1 [Compound 18, 1-(4-Chlorophenyl)-5-[(3,3-difluoro-1-pyrrolidinyl)methyl]-1H-tetrazole] | showed activity |  | 
12 | CC1CN(Cc2nnnn2-c2ccc(C(F)(F)F)cc2)CCN1 (stereo not drawn) [Compound 100, 3-Methyl-1-({1-[4-(trifluoromethyl)phenyl]-1H-tetrazol-5-yl}methyl)piperazine dihydrochloride] | showed activity |  | 
13 | O=S1(=O)CCC2CN(Cc3nnnn3-c3cccc(C(F)(F)F)c3)CCN21 (stereo not drawn) [Compound 79, 5-({1-[3-(Trifluoromethyl)phenyl]-1H-tetrazol-5-yl}methyl)hexahydro-2H-isothiazolo[2,3-a]pyrazine 1,1-dioxide] | showed activity |  | 
14 | CC(C)N1C[C@@H]2C[C@H]1CN2Cc1nnnn1-c1ccc(C(F)(F)F)cc1.Cl [Compound 51, (1S,4S)-2-(1-Methylethyl)-5-({1-[4-(trifluoromethyl)phenyl]-1H-tetrazol-5-yl}methyl)-2,5-diazabicyclo[2.2.1]heptane hydrochloride] | showed activity |  | 
15 | CCN1CCN(Cc2nnnn2-c2cccc(C(F)(F)F)c2)C(C)C1=O (stereo not drawn) [Compound 84, 1-Ethyl-3-methyl-4-({1-[3-(trifluoromethyl)phenyl]-1H-tetrazol-5-yl}methyl)-2-piperazinone] | showed activity |  | 
16 | CCCS(=O)(=O)N1CCN(Cc2nnnn2-c2ccc(Cl)cc2)CC1 [Compound 23, 1-{[1-(4-Chlorophenyl)-1H-tetrazol-5-yl]methyl}-4-(propylsulfonyl)piperazine] | showed activity |  | 
17 | CC1(C)COCCN1Cc1nnnn1-c1ccc(C#N)cc1.Cl [Compound 53, 4-{5-[(3,3-Dimethyl-4-morpholinyl)methyl]-1H-tetrazol-1-yl}benzonitrile] | showed activity |  | 
18 | CN1CCN(Cc2nnnn2-c2ccc(C(F)(F)F)cc2)CC1 [Compound 31, 1-Methyl-4-({1-[4-(trifluoromethyl)phenyl]-1 H-tetrazol-5-yl}methyl)piperazine dihydrochloride] | showed activity |  | 
19 | Cl.FC(F)(F)c1ccc(-n2nnnc2CCN2CCOCC2)cc1 [Compound 9, 4-(2-{1-[4-(Trifluoromethyl)phenyl]-1H-tetrazol-5-yl}ethyl)morpholine hydrochloride] | showed activity |  | 
20 | N#Cc1cc(-n2nnnc2CN2C[C@@H]3C[C@H]2CO3)ccc1C(F)(F)F [Compound 126, 5-{5-[(1S,4S)-2-oxa-5-azabicyclo[2.2.1]hept-5-ylmethyl]-1H-tetrazol-1-yl}-2-(trifluoromethyl)benzonitrile] | showed activity |  | 
21 | CCC(=O)N1CCN(Cc2nnnn2-c2ccc(C#N)c(C(F)(F)F)c2)CC1 [Compound 145, 4-{5-[(4-propanoyl-1-piperazinyl)methyl]-1H-tetrazol-1-yl}-2-(trifluoromethyl)benzonitrile] | showed activity |  | 
22 | Clc1ccc(-n2nnnc2CN2CCOCC2)cc1 [Compound 20, 4-{[1-(4-Chlorophenyl)-1H-tetrazol-5-yl]methyl}morpholine] | showed activity | ≥ 4.5 | 
23 | FC(F)(F)c1ccc(-n2nnnc2CN2C[C@@H]3C[C@H]2CN3)cc1 [Compound 50, (1S,4S)-2-({1-[4-(Trifluoromethyl)phenyl]-1H-tetrazol-5-yl}methyl)-2,5-diazabicyclo[2.2.1]heptane] | showed activity | ≥ 4.5 | 
24 | CC(c1nnnn1-c1ccc(C(F)(F)F)cc1)N1CCOCC1 (stereo not drawn) [Compound 40, 4-(1-{1-[4-(Trifluoromethyl)phenyl]-1H-tetrazol-5-yl}ethyl)morpholine] | showed activity |  | 
25 | CN1CCCC2(CCN(Cc3nnnn3-c3ccc(C#N)c(C(F)(F)F)c3)CC2)C1 [Compound 124, 4-{5-[(2-methyl-2,9-diazaspiro[5.5]undec-9-yl)methyl]-1H-tetrazol-1-yl}-2-(trifluoromethyl)benzonitrile hydrochloride] | showed activity | ≥ 4.5 | 
26 | CCC(CC)NCc1nnnn1-c1cccc(C(F)(F)F)c1.Cl [Compound 63, N-({1-[3-(Trifluoromethyl)phenyl]-1H-tetrazol-5-yl}methyl)-3-pentanamine hydrochloride] | showed activity |  | ≥ 5.5
